No constants are given. Whether binding was seen depends on the method and setting. Binding seen in cells or lysates may run through a third protein. Some results given as binding are weak or reduced against the parent protein; the word gives no strength.
Key:
[1] = molecular target: TENT4B (human) (UniProt Q8NDF8); assay: anti-FLAG co-immunoprecipitation from HeLa ZCCHC2 KO cells, western blot
[2] = molecular target: TENT4A (human) (UniProt Q5XG87); assay: as above
[3] = molecular target: TENT4B (human) (UniProt Q8NDF8); assay: co-immunoprecipitation with anti-TENT4B from RNase A-treated HeLa lysate, western blot
[4] = molecular target: TENT4A (human) (UniProt Q5XG87); assay: co-immunoprecipitation with anti-TENT4A from RNase A-treated HeLa lysate, western blot
[5] = molecular target: TENT4A (human) (UniProt Q5XG87); assay: co-immunoprecipitation with anti-TENT4A, HeLa parental and TENT4 double KO lysates, western blot
[6] = molecular target: TENT4B (human) (UniProt Q8NDF8); assay: co-immunoprecipitation with anti-TENT4B, HeLa parental and TENT4 double KO lysates, western blot

Sequences of proteins named here, by UniProt entry; tags and fusion partners are left off.
UniProt Q8NDF8: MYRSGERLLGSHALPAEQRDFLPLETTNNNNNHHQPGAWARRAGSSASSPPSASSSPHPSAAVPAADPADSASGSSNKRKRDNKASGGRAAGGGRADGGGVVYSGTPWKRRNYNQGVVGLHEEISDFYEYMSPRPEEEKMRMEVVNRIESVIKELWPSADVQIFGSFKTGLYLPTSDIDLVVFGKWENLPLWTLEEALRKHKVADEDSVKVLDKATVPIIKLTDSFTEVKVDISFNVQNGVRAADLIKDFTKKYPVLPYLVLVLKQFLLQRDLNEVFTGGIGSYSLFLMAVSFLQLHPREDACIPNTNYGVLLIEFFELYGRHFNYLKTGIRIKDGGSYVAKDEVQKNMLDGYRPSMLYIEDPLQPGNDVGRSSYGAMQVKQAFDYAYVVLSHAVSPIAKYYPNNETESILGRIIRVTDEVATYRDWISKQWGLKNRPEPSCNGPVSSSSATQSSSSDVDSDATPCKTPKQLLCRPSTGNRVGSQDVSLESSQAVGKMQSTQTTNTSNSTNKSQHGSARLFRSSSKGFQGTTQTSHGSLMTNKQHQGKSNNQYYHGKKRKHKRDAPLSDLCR
UniProt Q5XG87: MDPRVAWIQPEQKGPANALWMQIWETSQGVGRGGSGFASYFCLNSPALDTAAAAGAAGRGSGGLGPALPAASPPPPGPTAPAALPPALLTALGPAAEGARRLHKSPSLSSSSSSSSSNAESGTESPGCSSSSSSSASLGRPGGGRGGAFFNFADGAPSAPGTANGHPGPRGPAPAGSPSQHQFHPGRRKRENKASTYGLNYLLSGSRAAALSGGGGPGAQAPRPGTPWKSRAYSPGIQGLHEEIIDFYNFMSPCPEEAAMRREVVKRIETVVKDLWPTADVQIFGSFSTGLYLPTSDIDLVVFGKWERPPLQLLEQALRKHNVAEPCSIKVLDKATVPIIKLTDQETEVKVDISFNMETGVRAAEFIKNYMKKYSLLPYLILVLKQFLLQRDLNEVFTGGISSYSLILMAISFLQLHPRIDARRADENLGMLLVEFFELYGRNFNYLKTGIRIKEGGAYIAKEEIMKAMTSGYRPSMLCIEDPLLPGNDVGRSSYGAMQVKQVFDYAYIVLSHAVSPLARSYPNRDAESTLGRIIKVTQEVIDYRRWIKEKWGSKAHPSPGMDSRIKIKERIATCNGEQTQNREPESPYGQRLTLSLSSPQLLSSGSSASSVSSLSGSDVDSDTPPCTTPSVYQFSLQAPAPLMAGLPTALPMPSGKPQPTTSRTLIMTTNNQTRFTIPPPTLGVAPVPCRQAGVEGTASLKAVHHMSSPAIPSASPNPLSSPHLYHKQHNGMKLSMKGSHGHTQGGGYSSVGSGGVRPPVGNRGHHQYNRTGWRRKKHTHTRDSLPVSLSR
UniProt Q9C0B9: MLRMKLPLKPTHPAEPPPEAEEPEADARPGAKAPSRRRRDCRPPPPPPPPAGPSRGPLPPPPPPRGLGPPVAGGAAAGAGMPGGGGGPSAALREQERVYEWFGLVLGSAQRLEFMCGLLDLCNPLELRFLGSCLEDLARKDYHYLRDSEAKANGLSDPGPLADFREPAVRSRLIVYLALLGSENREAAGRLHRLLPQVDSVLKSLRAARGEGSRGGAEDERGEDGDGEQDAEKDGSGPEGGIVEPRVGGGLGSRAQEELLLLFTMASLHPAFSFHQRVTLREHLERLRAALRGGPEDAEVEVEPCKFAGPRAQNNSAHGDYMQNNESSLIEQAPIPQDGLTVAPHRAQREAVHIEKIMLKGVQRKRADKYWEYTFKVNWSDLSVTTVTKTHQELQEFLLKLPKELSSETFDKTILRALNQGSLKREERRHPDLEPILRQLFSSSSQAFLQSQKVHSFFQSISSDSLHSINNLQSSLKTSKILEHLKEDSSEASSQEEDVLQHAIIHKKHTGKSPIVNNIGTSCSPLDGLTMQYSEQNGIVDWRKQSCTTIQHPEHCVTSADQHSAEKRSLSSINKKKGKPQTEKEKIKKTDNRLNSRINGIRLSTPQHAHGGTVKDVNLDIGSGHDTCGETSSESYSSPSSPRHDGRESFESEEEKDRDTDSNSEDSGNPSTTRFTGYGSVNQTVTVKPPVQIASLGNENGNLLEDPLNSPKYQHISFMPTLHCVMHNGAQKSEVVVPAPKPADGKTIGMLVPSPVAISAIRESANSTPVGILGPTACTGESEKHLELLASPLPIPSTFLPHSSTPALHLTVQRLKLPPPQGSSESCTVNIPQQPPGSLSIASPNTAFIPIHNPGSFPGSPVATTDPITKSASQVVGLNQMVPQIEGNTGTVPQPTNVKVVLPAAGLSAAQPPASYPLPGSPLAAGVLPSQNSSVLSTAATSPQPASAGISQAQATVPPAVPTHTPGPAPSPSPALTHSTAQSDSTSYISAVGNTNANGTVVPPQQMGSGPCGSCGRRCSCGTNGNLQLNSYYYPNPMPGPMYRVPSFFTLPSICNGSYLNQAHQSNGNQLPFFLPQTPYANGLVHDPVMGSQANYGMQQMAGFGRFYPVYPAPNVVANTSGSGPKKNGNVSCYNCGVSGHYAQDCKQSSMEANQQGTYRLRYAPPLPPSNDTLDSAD

binding [1]	binding [2]	binding [3]	binding [4]	binding [5]	binding [6]	Substance
binds	binds	–	–	–	–	FLAG-tagged full-length ZCCHC2 (from UniProt Q9C0B9 1-1178)
–	–	binds	binds	binds	binds	ZCCHC2 (from UniProt Q9C0B9 1-1178)
